Data on 1 compound can be found in ChEMBL document CHEMBL2069234, “Aristoxazole analogues. Conversion of 8-nitro-1-naphthoic acid to 2-methylnaphtho[1,2-d]oxazole-9-carboxylic acid: comments on the chemical mechanism of formation of DNA adducts by the aristolochic acids” (J Nat Prod, 2012).

The subject of one series is Salmonella typhimurium. Description: Mutagenicity in Salmonella typhimurium TA100. In kind it is toxicity, organism-based. The following applies: salmonella enterica subsp. enterica serovar typhimurium.
Series [1] can be described thus: Drug conversion assessed as formation of oxazole derivatives in presence of Zn/HOAc. It counts as physicochemical.

Turning to `O=C(O)c1cccc2cccc([N+](=O)[O-])c12`, in the series on Salmonella typhimurium, the Activity entry is given as “Toxic”. The Drug metabolism result in series [1] is “Active”.
